Sequences of proteins named here, by UniProt entry; tags and fusion partners are left off.
UniProt P40337: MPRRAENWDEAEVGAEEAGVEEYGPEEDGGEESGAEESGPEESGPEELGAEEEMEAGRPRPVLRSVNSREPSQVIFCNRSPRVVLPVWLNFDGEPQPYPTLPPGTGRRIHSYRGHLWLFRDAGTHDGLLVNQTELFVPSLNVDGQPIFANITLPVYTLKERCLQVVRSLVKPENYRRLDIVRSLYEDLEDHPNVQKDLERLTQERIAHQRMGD
UniProt O95573: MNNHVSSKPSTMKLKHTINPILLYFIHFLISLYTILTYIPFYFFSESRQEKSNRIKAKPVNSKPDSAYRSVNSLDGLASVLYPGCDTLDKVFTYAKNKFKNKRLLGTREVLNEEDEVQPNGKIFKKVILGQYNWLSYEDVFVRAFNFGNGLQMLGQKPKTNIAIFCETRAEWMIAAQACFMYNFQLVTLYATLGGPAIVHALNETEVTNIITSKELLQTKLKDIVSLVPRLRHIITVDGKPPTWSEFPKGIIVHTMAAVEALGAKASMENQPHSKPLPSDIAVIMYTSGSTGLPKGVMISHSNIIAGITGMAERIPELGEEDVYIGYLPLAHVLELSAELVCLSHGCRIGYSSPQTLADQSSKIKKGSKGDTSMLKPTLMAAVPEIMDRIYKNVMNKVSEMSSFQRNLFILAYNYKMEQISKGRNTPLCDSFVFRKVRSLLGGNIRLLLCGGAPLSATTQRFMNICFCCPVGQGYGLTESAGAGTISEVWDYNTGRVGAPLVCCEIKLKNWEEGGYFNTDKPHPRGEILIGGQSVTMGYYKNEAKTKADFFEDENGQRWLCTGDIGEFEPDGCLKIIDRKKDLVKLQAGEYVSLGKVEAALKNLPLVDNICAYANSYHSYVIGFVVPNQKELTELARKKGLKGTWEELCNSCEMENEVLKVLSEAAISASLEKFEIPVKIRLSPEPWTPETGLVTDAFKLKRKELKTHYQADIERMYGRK
UniProt P27708: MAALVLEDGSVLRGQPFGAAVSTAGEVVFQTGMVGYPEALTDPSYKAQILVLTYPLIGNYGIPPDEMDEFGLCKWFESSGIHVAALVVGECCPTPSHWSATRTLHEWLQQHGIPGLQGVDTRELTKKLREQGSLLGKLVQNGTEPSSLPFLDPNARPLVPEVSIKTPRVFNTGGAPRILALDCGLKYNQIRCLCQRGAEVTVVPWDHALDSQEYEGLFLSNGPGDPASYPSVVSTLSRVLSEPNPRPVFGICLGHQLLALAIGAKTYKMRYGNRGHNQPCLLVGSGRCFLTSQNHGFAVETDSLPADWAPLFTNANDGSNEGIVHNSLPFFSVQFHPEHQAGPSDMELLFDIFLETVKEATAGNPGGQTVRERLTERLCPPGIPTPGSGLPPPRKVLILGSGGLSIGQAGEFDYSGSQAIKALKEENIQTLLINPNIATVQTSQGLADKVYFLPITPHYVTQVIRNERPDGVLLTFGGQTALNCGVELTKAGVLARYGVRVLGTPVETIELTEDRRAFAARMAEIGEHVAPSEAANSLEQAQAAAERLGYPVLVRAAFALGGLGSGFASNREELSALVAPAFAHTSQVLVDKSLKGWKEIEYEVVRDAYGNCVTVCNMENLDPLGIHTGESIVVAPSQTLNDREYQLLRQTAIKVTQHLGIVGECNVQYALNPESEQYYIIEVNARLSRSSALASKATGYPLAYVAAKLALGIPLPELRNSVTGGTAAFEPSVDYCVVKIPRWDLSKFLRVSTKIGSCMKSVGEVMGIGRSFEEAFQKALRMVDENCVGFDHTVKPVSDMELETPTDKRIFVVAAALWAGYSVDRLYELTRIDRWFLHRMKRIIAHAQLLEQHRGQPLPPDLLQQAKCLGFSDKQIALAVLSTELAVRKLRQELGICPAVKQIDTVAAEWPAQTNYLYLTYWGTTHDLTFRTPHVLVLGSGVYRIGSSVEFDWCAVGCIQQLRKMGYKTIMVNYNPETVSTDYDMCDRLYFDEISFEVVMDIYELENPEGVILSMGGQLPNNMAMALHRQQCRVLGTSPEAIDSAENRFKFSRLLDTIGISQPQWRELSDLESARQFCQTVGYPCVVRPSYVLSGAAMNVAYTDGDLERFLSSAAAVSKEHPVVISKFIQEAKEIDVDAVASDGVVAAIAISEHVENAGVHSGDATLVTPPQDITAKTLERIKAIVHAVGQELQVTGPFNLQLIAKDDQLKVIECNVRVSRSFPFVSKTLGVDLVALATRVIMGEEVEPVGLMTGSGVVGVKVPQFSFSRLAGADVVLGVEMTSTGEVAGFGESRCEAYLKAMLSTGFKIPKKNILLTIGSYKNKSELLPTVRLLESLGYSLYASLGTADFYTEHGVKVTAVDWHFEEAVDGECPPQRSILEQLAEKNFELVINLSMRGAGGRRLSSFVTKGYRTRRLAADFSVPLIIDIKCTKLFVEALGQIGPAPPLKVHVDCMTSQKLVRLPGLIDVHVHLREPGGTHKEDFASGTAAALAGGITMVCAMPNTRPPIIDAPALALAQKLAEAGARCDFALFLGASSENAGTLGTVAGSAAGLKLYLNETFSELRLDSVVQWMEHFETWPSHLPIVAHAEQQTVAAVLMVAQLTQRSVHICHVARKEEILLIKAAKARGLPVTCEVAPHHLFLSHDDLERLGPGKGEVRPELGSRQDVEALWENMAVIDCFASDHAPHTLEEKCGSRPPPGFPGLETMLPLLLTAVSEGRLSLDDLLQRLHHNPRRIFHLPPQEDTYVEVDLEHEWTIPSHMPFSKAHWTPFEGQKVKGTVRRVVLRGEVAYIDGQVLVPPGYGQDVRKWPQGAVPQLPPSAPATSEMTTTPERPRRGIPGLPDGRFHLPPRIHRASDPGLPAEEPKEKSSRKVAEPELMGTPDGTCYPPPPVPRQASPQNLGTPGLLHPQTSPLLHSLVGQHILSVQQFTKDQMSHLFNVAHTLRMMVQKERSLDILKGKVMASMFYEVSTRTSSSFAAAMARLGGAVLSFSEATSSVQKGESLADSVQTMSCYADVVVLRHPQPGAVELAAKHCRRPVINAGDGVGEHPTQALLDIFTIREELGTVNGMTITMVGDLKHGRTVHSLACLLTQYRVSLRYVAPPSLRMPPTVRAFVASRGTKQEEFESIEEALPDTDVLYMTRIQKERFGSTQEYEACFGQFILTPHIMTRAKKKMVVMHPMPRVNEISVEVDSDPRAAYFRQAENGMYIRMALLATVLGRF

According to paper PMC5543055:

Biological target: Flag-tagged wild-type von Hippel-Lindau tumour suppressor protein (pVHL), stably expressed in HCT116 (human) (UniProt P40337)
Assay: affinity purification with mass spectrometry; Flag-pVHL stably expressed in HCT116 cultured with the proteasome inhibitor MG132; affinity purification from whole cell extracts, 4-20% SDS-PAGE, bands identified by LC-MS/MS

binding | Substance
binds | acyl-CoA synthetase 3, endogenous in HCT116 (from UniProt O95573 1-720) (enzyme)
binds | carbamoyl-phosphate synthetase 2, aspartate transcarbamylase and dihydroorotase (CAD), endogenous in HCT116 (from UniProt P27708 1-2225) (enzyme)

These are yes or no findings as the source states them, for the method shown. Binding seen in cells or lysates may run through a third protein. These calls come from enrichment with a bait or labelling near it, and not all partners need be listed.
